Here are results for one molecule from patent US20260158102A1, “CYCLIC PEPTIDE DERIVATIVE COMPOSITION FOR TREATING OR PREVENTING NEUROPATHIC PAIN AND/OR INFLAMMATORY PAIN” (DKS Co. Ltd., priority 2022, published 2026).

The nature of series [1]: Body weight measurement in rat STZ-induced diabetes model. It counts as in vivo. The conditions noted are these: mean ± SE, in g (unit assumed). On the procedure: (§1) Compound 9 (50 mg/mL) was diluted with water for injection to obtain a 1 mg/mL administration specimen. For the specimens to be administered at 0.1 mg/mL and 0.01 mg/mL, the specimen to be administered at 1 mg/mL was diluted stepwise with water for injection. Each administration specimen was divided into PP disposable tubes every day and stored in a storehouse (freezer: MDF-MU339H-PJ, PHC Corporation) under the condition of freezing (−30° C. to −20° C., measured value: −26.4 to −24.5° C.). Preparation was performed on the day before the start of administration.
(§2) Water for injection was added to and dissolved in Pregabalin taken out from the capsule to obtain 2 mg/mL. It was prepared before use.
(§3) • Animal species: rat (SPF) • Strain: Crl: CD (SD) • Date of animal acquisition, gender, age in weeks, number of animals acquired, and weight range after 1 day of acquisition • First and second courses: Apr. 6, 2022, male, 7 weeks old, 35 animals, 217 to 237 g • Third and fourth courses: Apr. 13, 2022, male, 7 weeks old, 35 animals, 216 to 235 g • Source: […].
(§4) • Dose volume: calculated at 2 mL/kg based on the body weight on the day of administration. • Number of times of administration: once • Day of administration: 7 days before the day of starting administration of the test substance.
(§5) • Dose volume: calculated at 1 mL/kg based on the body weight on the day of administration. • Number of times of administration: 9 times • Interval of administration: once every 3 days (evaluation was performed on the day after administration) • Day of starting administration: day 8 of STZ administration (day of STZ administration is counted as day 1).
(§6) • Dose volume: calculated at 10 mL/kg based on the body weight on the day of administration. • Number of times of administration: Administration was performed once on the day of evaluation of neuropathic pain, twice in total, and on the other days of administration, a vehicle for a control substance (water for injection) was orally administered.
• Measurement was performed every day after the day of STZ administration.
The mean and standard error of each group were calculated for the 50% withdrawal threshold, body weight, and blood glucose level.
The body weight was an integer.
No significant difference test of body weight and blood glucose levels was performed.

Series [2] is described as follows: Observation of general condition in rat STZ-induced diabetes model. It counts as in vivo. The conditions noted are these: 1 mg/kg iv, number of animals, 10 per group. How it is done: as §1, §2, §3, §4, §5, §6
• Observation of general condition • Observation was performed once a day.

Further values from the same series stand in other lists.

On to `CC[C@@]1(C)Oc2cc(ccc2O)C[C@H](NC)C(=O)N[C@@H](C(C)C)C(=O)N[C@@H]1C(=O)N[C@@H](CC(=O)O)C(=O)O` [Compound 9], for which the Body weight in series [1] (0.01 mg/kg iv, day 35 of STZ administration) was found to be 312 ± 11; in series [1] (0.1 mg/kg iv, day 34 of STZ administration), 312 ± 9; in series [1] (0.1 mg/kg iv, day 35 of STZ administration), 314 ± 9; in series [1] (1 mg/kg iv, day 34 of STZ administration), 308 ± 11; in series [1] (1 mg/kg iv, day 35 of STZ administration), 310 ± 11. Moreover, the general condition in series [2] (day 23 of STZ administration), in series [2] (day 24 of STZ administration), in series [2] (day 25 of STZ administration), in series [2] (day 26 of STZ administration) and in series [2] (day 27 of STZ administration) was 10 in each case.
